Source: PubChem BioAssay AID1347131 (National Center for Advancing Translational Sciences (NCATS), 2019)
About 2,000 (0.49%) of roughly 410,000 compounds were called active. Inconclusive means that the source gave no clear call. Such entries were picked first, then a sample of the others. Calls follow the shape of the full dose curve; tested in HEK293 reporter line. Potencies of inconclusive entries are doubtful fits and often do not repeat.

Assay: qHTS Assay for Foot and Mouth Disease Virus Antivirals: Primary Screen against the MLPCN compound library; also: nearly all actives have a fitted effect of over 55% in size
Details: FMDV antiviral cell-based qHTS; activity, negative = inhibition: at 57.9 µM (top of the series)
Potency is read from the fitted curve at half-maximal effect.

| SMILES | Potency | activity, negative = inhibition |
| --- | --- | --- |
| CCOC(=O)c1ccc(N2C(=O)c3n[nH]c(-c4ccco4)c3C2c2cccc([N+](=O)[O-])c2)cc1 (centres undefined) | inconclusive: 35.5 µM [inhibitor, partial curve, poor fit] | – |
| O=C(C1CCC(Cn2c(=S)[nH]c3ccccc3c2=O)CC1)N1CCN(c2ccccn2)CC1 (centres undefined) | inconclusive: 22.4 µM [inhibitor, partial curve, poor fit] | – |
| CC1C(=O)N(Cc2ccc(F)cc2)c2ccccc2N1C(=O)c1c(F)cccc1F (centres undefined) | inconclusive: 22.4 µM [inhibitor, partial curve, poor fit] | – |
| COc1cccc(C(=O)Nc2c(C(N)=O)oc3ccccc23)c1 | inconclusive: 15.8 µM [inhibitor, partial curve, poor fit] | – |
| CCCC[n+]1ccn(C2=C([O-])c3ccccc3C(=O)/C2=N\S(=O)(=O)c2ccccc2)c1 | inconclusive: 22.4 µM [inhibitor, partial curve, poor fit] | – |
| Cc1nn2c3c(cnc2c1-c1ccc(F)cc1)C(=O)CC(c1ccccc1)C3 (centres undefined) | – | inactive: -35.2% |
| Cc1cc(C)cc(N=c2c([N+](=O)[O-])nn(-c3ccc(Cl)cc3)n2O)c1 | inconclusive: 14.1 µM [inhibitor, partial curve] | – |
| CS(=O)(=O)c1cccc(C(=O)Nc2ccc(-c3nc4ccccc4[nH]3)cc2)c1 | inconclusive: 28.2 µM [inhibitor, partial curve, poor fit] | – |
| O=c1c2ccccc2oc2ccc(C#CC3(O)CCCCC3)cc12 | inconclusive: 31.6 µM [inhibitor, single point] | – |
| C#CCN(C[C@@H]1[C@@H](OC(=O)NCc2ccccc2F)[C@@H](OC(=O)NCc2ccccc2F)Cn2c(=O)ccc(=O)n21)S(=O)(=O)c1ccc(C)cc1 | inconclusive: 14.1 µM [inhibitor, partial curve, poor fit] | – |
| CC(=O)Nc1ccc(NC(=O)COC(=O)C2(c3ccc(Cl)cc3)CCCC2)cc1 | inconclusive: 28.2 µM [inhibitor, single point] | – |
| CCOC1(C)OCC(=O)[C@]2(CCC3C4CCC5=CC(=O)C=CC5(C)C4C(=O)CC32C)O1 (some centres undefined) | inconclusive: 12.6 µM [inhibitor, partial curve, poor fit] | – |
| Cc1ccc(C(=O)SC2=NCCS2)cc1 | inconclusive: 35.5 µM [inhibitor, partial curve, poor fit] | – |
| CCCCCCCCCCOC(=O)Cn1c(COc2cccc(OC)c2)[n+](C)c2ccccc21 | inconclusive: 28.2 µM [inhibitor, partial curve, poor fit] | – |
| Cc1cc2sc3ccc(C#CC4(O)CCCCC4)cc3c(=O)c2cc1C | – | inactive: -99.3% |
| COC(=O)c1cc(CN2CCN(c3ccccc3C)CC2)ccc1O | inconclusive: 25.1 µM [inhibitor, single point] | – |
| Cc1ccc(Nc2nc(CSc3nnc(-c4ccccc4)n3C)cs2)cc1 | inconclusive: 39.8 µM [inhibitor, single point] | – |
| O=C(Nc1nc(-c2ccc(S(=O)(=O)N3CCCCCC3)cc2)cs1)c1ccccc1 | inconclusive: 11.2 µM [inhibitor, partial curve, poor fit] | – |
| Cc1ncc([N+](=O)[O-])n1CCOC(=O)c1cc(Cl)cc(Cl)c1N | inconclusive: 28.2 µM [inhibitor, partial curve, poor fit] | – |
| O=C(O)c1ccc(N2C(=O)/C(=C/c3ccc(-c4ccc([N+](=O)[O-])cc4)o3)C=C2c2ccccc2)cc1 | inconclusive: 15.8 µM [inhibitor, partial curve, poor fit] | – |

| SMILES | Potency | activity, negative = inhibition |
| --- | --- | --- |
| O=C(CCl)N1c2ccccc2SCC1c1ccccc1 (centres undefined) | inconclusive: 28.2 µM [inhibitor, partial curve, poor fit] | – |
| c1ccc2c(C3=NNC(=NC4CC4)SC3)c[nH]c2c1 | inconclusive: 12.6 µM [inhibitor, single point] | – |
| CCOc1ccc(NC(=O)c2cnn3c2NC(C)=C(C(=O)Nc2ccc(Cl)cc2)C3c2ccc(OC)c(OC)c2)cc1 (centres undefined) | inconclusive: 2.82 µM [inhibitor, full curve] | – |
| C=CCN(c1ccc(C(=O)Nc2cccc(C)c2)cc1)S(C)(=O)=O | – | inactive: -30.9% |
| CN(CC(=O)NCc1ccccc1)CC(=O)Nc1ccc(Cl)c(C(F)(F)F)c1 | – | inactive: -31.1% |
| N#Cc1c(-n2ncnc2-c2ccccc2Cl)sc2c1CCCCC2 | inconclusive: 2 µM [inhibitor, full curve] | – |
| O=C(/C=C/c1ccc2c(c1)OCO2)NCCS(=O)(=O)N1CCN(c2ccccc2)CC1 | inconclusive: 0.891 µM [inhibitor, full curve] | – |
| Nc1c(-c2ccccc2)cnn1-c1ccc(C(=O)O)cc1 | inconclusive: 22.4 µM [inhibitor, single point] | – |
| CCOC(=O)c1ccc(N2C(=O)c3n[nH]c(-c4cccs4)c3C2c2cccc(O)c2)cc1 (centres undefined) | inconclusive: 35.5 µM [inhibitor, partial curve, poor fit] | – |
| O=C(Nc1ccc(Cl)cc1Cl)C1=Cc2ccccc2OC1 | inconclusive: 39.8 µM [inhibitor, single point] | – |
| CCC(C(=O)OCC(=O)c1c(N)n(CC(C)C)c(=O)n(C)c1=O)c1ccccc1 (centres undefined) | inconclusive: 39.8 µM [inhibitor, partial curve, poor fit] | – |
| COc1cccc(-c2ncn(CCc3ccccc3OC)c2C(C)C)c1 | inconclusive: 31.6 µM [inhibitor, partial curve, poor fit] | – |
| COc1ccc2c(c1)c(C(C)=O)c(C)n2-c1ccccc1OC | – | inconclusive: -31.2% [inhibitor] |
| CCC(C(=O)OC(C)C(=O)Nc1ccc(Cl)cn1)c1ccccc1 (centres undefined) | inconclusive: 14.1 µM [inhibitor, partial curve, poor fit] | – |
| CC1(C)CC(N2CCN(C(c3ccccc3)c3ccccc3)CC2)=CC(=[N+]2CCCCC2)C1 | inconclusive: 2.82 µM [inhibitor, full curve, poor fit] | – |
| O=C(Nc1nc2ccccc2s1)c1cccn(Cc2ccccc2)c1=O | inconclusive: 17.8 µM [inhibitor, single point] | – |
| COc1cc(NC(=O)Cn2c(=O)nc(-c3ccccc3F)c3cc(Cl)ccc32)cc(OC)c1 | inconclusive: 15.8 µM [inhibitor, single point] | – |
| CC(=O)c1sc(NC(=O)C2COc3ccccc3O2)nc1C (centres undefined) | active: 11.2 µM | – |
| N#Cc1ccc(-c2ccc(OCC(O)Cn3nnc4ccccc43)cc2)cc1 (centres undefined) | inconclusive: 28.2 µM [inhibitor, single point] | – |

| SMILES | Potency | activity, negative = inhibition |
| --- | --- | --- |
| CC(=O)NC(c1cccc(F)c1)c1nc(-c2cccc(C(C)C)c2)cs1 (centres undefined) | inconclusive: 14.1 µM [inhibitor, partial curve] | – |
| N#C/C(=C\c1cccc(Oc2ccccc2)c1)C(=O)N1CCOCC1 | inconclusive: 35.5 µM [inhibitor, partial curve, poor fit] | – |
| CCOc1cc(N2CCOCC2)c(OCC)cc1NC(=O)COC(=O)c1cccc2ccccc12 | inconclusive: 22.4 µM [inhibitor, partial curve, poor fit] | – |
| Cc1nc([N+](=O)[O-])c(Sc2nc3ccccc3n2C)n1Cc1ccccc1 | inconclusive: 25.1 µM [inhibitor, partial curve, poor fit] | – |
| CN1/C(=C\C(=O)COC(=O)CNC(=O)c2ccc3ccccc3c2)C(C)(C)c2ccccc21 | – | inactive: -30.8% |
| Cc1cccc(NC(=O)c2n[nH]c([N+](=O)[O-])c2Br)c1C | inconclusive: 14.1 µM [inhibitor, single point] | – |
| Cc1ccn2c(Nc3ccc4c(c3)OCO4)c(-c3ccc(Cl)cc3)nc2c1 | inconclusive: 2.24 µM [inhibitor, full curve] | – |
| COc1cccc(CNC(=O)c2cccc(S(=O)(=O)N3CCN(c4ccc(F)cc4)CC3)c2)c1 | – | inactive: -41.7% |
| Cc1cccc(NS(=O)(=O)c2cc(C(=O)NCCC3=CCCCC3)ccc2Cl)c1 | inconclusive: 39.8 µM [inhibitor, single point] | – |
| Cc1nc(SCC(=O)NCCc2ccccc2)nc(C)c1C | – | inactive: -17.8% |
| Cc1cccc(CN2CCN(C(=O)CCl)CC2)c1 | inconclusive: 35.5 µM [inhibitor, partial curve, poor fit] | – |
| N#CC(c1ccc(Cl)cc1)c1cccc(Cl)n1 (centres undefined) | inconclusive: 28.2 µM [inhibitor, partial curve, poor fit] | – |
| CCOC(=O)c1sc(NC(=O)c2ccc(S(=O)(=O)N3CCCCC3)cc2)nc1-c1ccccc1 | – | inactive: -41.2% |
| COc1ccc(OCc2cccc(C(=O)Nn3cc([N+](=O)[O-])cn3)c2)cc1 | inconclusive: 25.1 µM [inhibitor, single point] | – |
| Cc1ccc(C2CC(c3cccs3)=NN2C(=O)CCl)cc1 (centres undefined) | inconclusive: 17.8 µM [inhibitor, partial curve, poor fit] | – |
| Fc1ccc(-n2nnnc2-c2cnc(-c3cccs3)nc2C(F)(F)F)cc1 | inconclusive: 15.8 µM [inhibitor, partial curve, poor fit] | – |
| COc1ccc(-c2cc(C(=O)Nc3cccc(O)c3)no2)cc1 | inconclusive: 20 µM [inhibitor, partial curve, poor fit] | – |
| Cc1cccc(C(=O)O)c1NC(=O)c1ccc(F)cc1 | – | inactive: -30.2% |
| O=C(/C=C/c1cccs1)c1cc(F)ccc1OC(=O)N1CCOCC1 | inconclusive: 22.4 µM [inhibitor, partial curve, poor fit] | – |

Part of the list above in order of length of the SMILES, falling:

| SMILES | Potency | activity, negative = inhibition |
| --- | --- | --- |
| CCCC[n+]1ccn(C2=C([O-])c3ccccc3C(=O)/C2=N\S(=O)(=O)c2ccccc2)c1 | inconclusive: 22.4 µM [inhibitor, partial curve, poor fit] | – |
| CCOC(=O)c1sc(NC(=O)c2ccc(S(=O)(=O)N3CCCCC3)cc2)nc1-c1ccccc1 | – | inactive: -41.2% |
| CC1(C)CC(N2CCN(C(c3ccccc3)c3ccccc3)CC2)=CC(=[N+]2CCCCC2)C1 | inconclusive: 2.82 µM [inhibitor, full curve, poor fit] | – |
| O=C(/C=C/c1ccc2c(c1)OCO2)NCCS(=O)(=O)N1CCN(c2ccccc2)CC1 | inconclusive: 0.891 µM [inhibitor, full curve] | – |
| O=C(Nc1nc(-c2ccc(S(=O)(=O)N3CCCCCC3)cc2)cs1)c1ccccc1 | inconclusive: 11.2 µM [inhibitor, partial curve, poor fit] | – |
| CC(=O)Nc1ccc(NC(=O)COC(=O)C2(c3ccc(Cl)cc3)CCCC2)cc1 | inconclusive: 28.2 µM [inhibitor, single point] | – |
| CN(CC(=O)NCc1ccccc1)CC(=O)Nc1ccc(Cl)c(C(F)(F)F)c1 | – | inactive: -31.1% |
| Cc1nn2c3c(cnc2c1-c1ccc(F)cc1)C(=O)CC(c1ccccc1)C3 (centres undefined) | – | inactive: -35.2% |
| CC(=O)NC(c1cccc(F)c1)c1nc(-c2cccc(C(C)C)c2)cs1 (centres undefined) | inconclusive: 14.1 µM [inhibitor, partial curve] | – |
| N#Cc1ccc(-c2ccc(OCC(O)Cn3nnc4ccccc43)cc2)cc1 (centres undefined) | inconclusive: 28.2 µM [inhibitor, single point] | – |
| Cc1ccc(Nc2nc(CSc3nnc(-c4ccccc4)n3C)cs2)cc1 | inconclusive: 39.8 µM [inhibitor, single point] | – |
| COc1cccc(-c2ncn(CCc3ccccc3OC)c2C(C)C)c1 | inconclusive: 31.6 µM [inhibitor, partial curve, poor fit] | – |
| COC(=O)c1cc(CN2CCN(c3ccccc3C)CC2)ccc1O | inconclusive: 25.1 µM [inhibitor, single point] | – |
| Cc1nc(SCC(=O)NCCc2ccccc2)nc(C)c1C | – | inactive: -17.8% |
